PubChem BioAssay AID504764, Drosophila RNAi Screening Center – 2011
Test: 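Knock-downs that raise or lower a Notch target reporter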 (primary screen). Cell system: Drosophila Kc167 cells. Reagents: long dsRNA against Drosophila genes. Time to read-out: about 5 days (4 days dsRNA, then 24 h after transfection). Treatment: transfection of constitutively active membrane-tethered Notch lacking the extracellular domain, read 24 h later. Detection: 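Light from a Notch-responsive E(spl)m3 luciferase reporter under active Notch, with control-promoter and no-Notch reporter wells to normalise; raw counts from paired wells a and b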. Direction: induced reporter light, run 1, well a and induced reporter light, run 1, well b: higher = more light from the Notch target reporter with active Notch; control promoter light, run 1, well a and control promoter light, run 1, well b: higher = more light from the viral control promoter (cell number, transfection, viability); uninduced reporter light, run 1, well a: higher = more light from the Notch target reporter without active Notch. Call rule: 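Wells with low control signal or poorly matching duplicates excluded; duplicates averaged; per source plate, z beyond ±2 for induced/control log2 ratio or beyond ±1.8 for induced/uninduced marks a hit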. Calls: active = modifier hit (raised or lowered Notch signal); inactive = not a hit.
The screen tested about 22,000 reagents; shown is an unselected part of those with a known target gene and a result. Over the whole deposit, 403 (1.9%) are marked active. 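Unnormalised raw counts per well; ratio z-scores behind the hit calls and whether each hit raises or lowers signal are not deposited.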 The record does not give: the amount of reagent.

After knock-down of ich [DRSC12715] the results were induced reporter light, run 1, well a = 1.61e5; induced reporter light, run 1, well b = 1.23e5; control promoter light, run 1, well a = 1.57e5; control promoter light, run 1, well b = 1.71e5; uninduced reporter light, run 1, well a = 10625; inactive.
With knock-down of ich [DRSC14448], the record shows induced reporter light, run 1, well a = 40120; induced reporter light, run 1, well b = 52050; control promoter light, run 1, well a = 47455; control promoter light, run 1, well b = 28515; uninduced reporter light, run 1, well a = 4492; inactive.
With knock-down of kst [DRSC08719], the screen gave induced reporter light, run 1, well a = 1.22e5; induced reporter light, run 1, well b = 1.21e5; control promoter light, run 1, well a = 87530; control promoter light, run 1, well b = 34060; uninduced reporter light, run 1, well a = 11970; inactive.
Pfdn2 [DRSC10618] showed induced reporter light, run 1, well a = 1.03e5; induced reporter light, run 1, well b = 89695; control promoter light, run 1, well a = 1.20e5; control promoter light, run 1, well b = 1.26e5; uninduced reporter light, run 1, well a = 10455; inactive.
For rsh [DRSC18966], the values are induced reporter light, run 1, well a = 58770; induced reporter light, run 1, well b = 54285; control promoter light, run 1, well a = 76370; control promoter light, run 1, well b = 60495; uninduced reporter light, run 1, well a = 5125; inactive.
Silencing of rsh [DRSC19816] gave: induced reporter light, run 1, well a = 43905; induced reporter light, run 1, well b = 46215; control promoter light, run 1, well a = 46905; control promoter light, run 1, well b = 34390; uninduced reporter light, run 1, well a = 8438; inactive.
scaf6 [DRSC10075] showed induced reporter light, run 1, well a = 1.16e5; induced reporter light, run 1, well b = 1.13e5; control promoter light, run 1, well a = 79320; control promoter light, run 1, well b = 79915; uninduced reporter light, run 1, well a = 11765; inactive.
scaf6 [DRSC10676] showed induced reporter light, run 1, well a = 2.85e5; induced reporter light, run 1, well b = 2.42e5; control promoter light, run 1, well a = 3.19e5; control promoter light, run 1, well b = 2.51e5; uninduced reporter light, run 1, well a = 11665; inactive.
With knock-down of scaf6 [DRSC10678] the results were induced reporter light, run 1, well a = 1.03e5; induced reporter light, run 1, well b = 83345; control promoter light, run 1, well a = 91945; control promoter light, run 1, well b = 96260; uninduced reporter light, run 1, well a = 9705; inactive.
With knock-down of Dbct [DRSC19951], the screen gave induced reporter light, run 1, well a = 2.08e5; induced reporter light, run 1, well b = 1.38e5; control promoter light, run 1, well a = 2.05e5; control promoter light, run 1, well b = 1.86e5; uninduced reporter light, run 1, well a = 10795; inactive.
Depletion of clumsy [DRSC03111] resulted in: induced reporter light, run 1, well a = 62500; induced reporter light, run 1, well b = 50510; control promoter light, run 1, well a = 52235; control promoter light, run 1, well b = 68930; uninduced reporter light, run 1, well a = 3015; inactive.

An excerpt from above, limited to “induced reporter light, run 1, well b”.
rsh [DRSC18966] = 54285
rsh [DRSC19816] = 46215

Continued.
After knock-down of v [DRSC20383], the record shows induced reporter light, run 1, well a = 1.85e5; induced reporter light, run 1, well b = 1.46e5; control promoter light, run 1, well a = 2.01e5; control promoter light, run 1, well b = 2.14e5; uninduced reporter light, run 1, well a = 12525; inactive.
Knock-down of CG6431 [DRSC02956] resulted in: induced reporter light, run 1, well a = 98070; induced reporter light, run 1, well b = 1.28e5; control promoter light, run 1, well a = 64775; control promoter light, run 1, well b = 84560; uninduced reporter light, run 1, well a = 15875; inactive.
CG7900 [DRSC16336] scored induced reporter light, run 1, well a = 1.06e5; induced reporter light, run 1, well b = 1.17e5; control promoter light, run 1, well a = 80925; control promoter light, run 1, well b = 68380; uninduced reporter light, run 1, well a = 5782; inactive.
For CG7900 [DRSC21343], the values are inactive.
After knock-down of CG14073 [DRSC10078], the screen gave induced reporter light, run 1, well a = 1.74e5; induced reporter light, run 1, well b = 1.43e5; control promoter light, run 1, well a = 2.82e5; control promoter light, run 1, well b = 2.55e5; uninduced reporter light, run 1, well a = 9130; active.
Against CG13326 [DRSC06363], the entry reads induced reporter light, run 1, well a = 80745; induced reporter light, run 1, well b = 85850; control promoter light, run 1, well a = 98375; control promoter light, run 1, well b = 89545; uninduced reporter light, run 1, well a = 6360; inactive.
Against CG3597 [DRSC00617], the values are induced reporter light, run 1, well a = 1.47e5; induced reporter light, run 1, well b = 1.44e5; control promoter light, run 1, well a = 1.08e5; control promoter light, run 1, well b = 67990; uninduced reporter light, run 1, well a = 12275; inactive.
